Results reported in publication PMC9512700, “Observation of conformational changes that underlie the catalytic cycle of Xrn2” (Nature Chemical Biology, 2022).
For at least one entry, the source does not settle the construct or the ends of the probe. At least one verdict rests on a figure or table, not on a statement of the authors. Protein sequences can lack the tags named with them.

Target: T1, CtXrn2 deltaZnF N12C-BTFA N12C,del263-300 (Chaetomium thermophilum) (UniProt G0S058)
T1 sequence (looked up): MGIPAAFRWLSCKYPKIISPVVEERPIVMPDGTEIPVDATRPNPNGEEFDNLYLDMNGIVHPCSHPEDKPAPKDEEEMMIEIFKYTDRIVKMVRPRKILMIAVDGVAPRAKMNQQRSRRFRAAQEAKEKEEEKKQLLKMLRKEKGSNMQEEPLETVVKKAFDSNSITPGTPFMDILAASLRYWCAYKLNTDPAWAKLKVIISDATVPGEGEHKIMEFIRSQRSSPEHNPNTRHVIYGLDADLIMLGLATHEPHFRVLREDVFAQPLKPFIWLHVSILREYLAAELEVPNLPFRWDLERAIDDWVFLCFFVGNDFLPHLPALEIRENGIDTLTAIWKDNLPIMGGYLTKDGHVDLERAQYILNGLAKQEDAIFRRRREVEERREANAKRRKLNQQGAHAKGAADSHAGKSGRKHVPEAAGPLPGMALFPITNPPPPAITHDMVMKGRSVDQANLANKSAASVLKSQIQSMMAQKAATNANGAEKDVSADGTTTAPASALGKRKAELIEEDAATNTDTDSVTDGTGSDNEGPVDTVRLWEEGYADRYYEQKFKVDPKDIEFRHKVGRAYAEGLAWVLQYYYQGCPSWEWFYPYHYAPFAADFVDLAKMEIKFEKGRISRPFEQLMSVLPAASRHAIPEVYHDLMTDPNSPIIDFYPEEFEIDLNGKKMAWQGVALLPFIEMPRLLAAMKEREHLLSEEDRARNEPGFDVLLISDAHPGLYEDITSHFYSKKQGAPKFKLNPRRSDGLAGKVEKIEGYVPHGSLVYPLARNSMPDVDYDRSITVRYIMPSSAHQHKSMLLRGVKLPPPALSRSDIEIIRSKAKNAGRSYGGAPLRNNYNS
Test: NMR (19F CPMG)
Details: no Mg2+, helix dynamics unchanged; 5'-phosphate; NMR: 25 mM HEPES pH 7.3, 125 mM NaCl, 1 mM DTT, 5 mM MgCl2 unless noted; recombinant protein; residues 1-875; protein details: C-terminal His6 (LEHHHHHH); single-stranded DNA

Question: Does AAAAA [pdA5] bind?
Answer: binds
